From publication PMC9201722
These are yes or no findings as the source states them, for the method shown. In cells and extracts the contact can be indirect. Binding calls can cover weak binding; strength is not graded here.

Protein sequences, listed by entry. Tags and fused reporters are not part of them. Lines headed by an entry give the natural chain unless they say otherwise; changes in a name come on top.
UniProt O97182: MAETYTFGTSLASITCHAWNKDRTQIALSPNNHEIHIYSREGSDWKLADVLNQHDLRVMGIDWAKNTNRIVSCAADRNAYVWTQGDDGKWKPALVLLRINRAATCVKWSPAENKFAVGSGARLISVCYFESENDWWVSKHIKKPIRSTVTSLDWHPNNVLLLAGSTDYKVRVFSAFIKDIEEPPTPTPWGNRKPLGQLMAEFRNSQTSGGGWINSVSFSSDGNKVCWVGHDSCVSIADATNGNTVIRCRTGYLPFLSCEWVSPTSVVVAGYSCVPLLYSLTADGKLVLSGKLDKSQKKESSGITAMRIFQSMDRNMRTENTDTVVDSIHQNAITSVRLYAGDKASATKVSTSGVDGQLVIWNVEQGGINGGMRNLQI
UniProt Q9VRJ6: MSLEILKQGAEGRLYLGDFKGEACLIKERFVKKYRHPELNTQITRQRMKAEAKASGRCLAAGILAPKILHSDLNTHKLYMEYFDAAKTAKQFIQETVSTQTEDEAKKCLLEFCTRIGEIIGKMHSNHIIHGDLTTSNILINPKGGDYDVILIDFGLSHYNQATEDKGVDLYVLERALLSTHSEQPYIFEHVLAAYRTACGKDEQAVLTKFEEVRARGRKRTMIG

Molecular target: Arp2/3 complex subunit Arpc1, GFP-tagged (Arpc1-GFP) (Drosophila melanogaster) (UniProt O97182)
Experiment: co-IP; Constructs expressed with the Cg-Gal4 driver; extract of 60 pairs of third instar larval fat bodies (40 mM HEPES pH 7.5, 120 mM NaCl, 0.3% CHAPS buffer); 250 ug extract on GFP-Trap_A beads, 2 h at 4°C; blots with anti-HA and anti-GFP

binding | Substance
binds | Drosophila p53-related protein kinase, FLAG-tagged (Prpk-Flag) (from UniProt Q9VRJ6)
binds | Drosophila p53-related protein kinase, HA-tagged (Prpk-HA) (from UniProt Q9VRJ6)
